Measurements: publication PMC11811133
No constants are given. Whether binding was seen depends on the method and setting. In cells and extracts the contact can be indirect. Some results given as binding are weak or reduced against the parent protein; the word gives no strength. For part of these data: Tags and fused reporters may be left off the sequences shown.

The chains behind the UniProt entries cited, without tags or fusion partners.
UniProt Q8C6L5: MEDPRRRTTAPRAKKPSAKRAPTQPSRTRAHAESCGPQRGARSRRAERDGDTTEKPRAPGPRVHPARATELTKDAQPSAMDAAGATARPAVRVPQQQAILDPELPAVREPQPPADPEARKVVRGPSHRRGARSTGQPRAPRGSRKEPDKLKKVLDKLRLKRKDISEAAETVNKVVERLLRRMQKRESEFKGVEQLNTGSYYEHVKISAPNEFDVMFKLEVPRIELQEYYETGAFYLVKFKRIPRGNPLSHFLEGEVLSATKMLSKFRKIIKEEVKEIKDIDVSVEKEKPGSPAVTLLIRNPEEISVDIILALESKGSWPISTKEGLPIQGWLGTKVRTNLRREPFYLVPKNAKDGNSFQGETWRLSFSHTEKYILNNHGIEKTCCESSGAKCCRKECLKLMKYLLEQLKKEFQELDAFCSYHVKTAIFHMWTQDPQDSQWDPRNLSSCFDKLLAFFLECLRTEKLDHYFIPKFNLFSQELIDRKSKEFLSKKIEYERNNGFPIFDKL

How the values were obtained:
[1] = biological target: cGAS (cyclic GMP-AMP synthase), endogenous (UniProt Q8C6L5); test: co-IP; cells transfected with TRIM56 WT, K110Q or K110R, then infected with HSV-1 (MOI = 3) for 12 h; endogenous cGAS
[2] = biological target: T1, HA-HDAC6 (full-length wild-type mouse histone deacetylase 6), expressed in 293T cells (mouse) (UniProt Q9Z2V5); test: co-IP; 293T cells co-transfected with HA-HDAC6 and Flag-TRIM56
T1 sequence: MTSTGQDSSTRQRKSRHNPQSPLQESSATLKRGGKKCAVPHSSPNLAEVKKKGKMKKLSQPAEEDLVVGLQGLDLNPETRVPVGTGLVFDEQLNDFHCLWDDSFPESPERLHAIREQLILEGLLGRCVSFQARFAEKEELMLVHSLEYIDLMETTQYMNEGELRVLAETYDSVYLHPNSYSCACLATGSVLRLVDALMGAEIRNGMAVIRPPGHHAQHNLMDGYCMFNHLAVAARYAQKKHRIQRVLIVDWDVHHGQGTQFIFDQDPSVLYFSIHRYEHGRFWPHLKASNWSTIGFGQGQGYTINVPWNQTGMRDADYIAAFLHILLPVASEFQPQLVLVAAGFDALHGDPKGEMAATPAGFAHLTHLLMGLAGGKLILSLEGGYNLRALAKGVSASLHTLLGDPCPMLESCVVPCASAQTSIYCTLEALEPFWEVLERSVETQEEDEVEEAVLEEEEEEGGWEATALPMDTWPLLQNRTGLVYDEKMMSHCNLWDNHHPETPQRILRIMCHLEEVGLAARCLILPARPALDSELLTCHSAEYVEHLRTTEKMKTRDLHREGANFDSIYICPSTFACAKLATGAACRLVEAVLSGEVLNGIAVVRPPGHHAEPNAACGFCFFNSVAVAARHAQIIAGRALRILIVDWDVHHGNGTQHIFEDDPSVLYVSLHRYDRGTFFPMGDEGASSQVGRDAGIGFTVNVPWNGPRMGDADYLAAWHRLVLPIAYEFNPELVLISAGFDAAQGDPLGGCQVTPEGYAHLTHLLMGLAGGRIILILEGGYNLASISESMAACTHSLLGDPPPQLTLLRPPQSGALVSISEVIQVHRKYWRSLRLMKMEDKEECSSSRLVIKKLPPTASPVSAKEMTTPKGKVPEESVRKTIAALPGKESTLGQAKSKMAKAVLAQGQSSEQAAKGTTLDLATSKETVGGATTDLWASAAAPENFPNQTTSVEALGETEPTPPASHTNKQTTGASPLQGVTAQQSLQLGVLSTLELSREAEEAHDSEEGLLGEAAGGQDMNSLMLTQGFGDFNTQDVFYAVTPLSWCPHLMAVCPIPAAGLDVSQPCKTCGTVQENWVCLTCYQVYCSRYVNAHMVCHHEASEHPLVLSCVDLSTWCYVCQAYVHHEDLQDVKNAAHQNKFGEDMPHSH

[3] = biological target: T2, HDAC6 (histone deacetylase 6), endogenous in N2a cells (mouse (endogenous in N2a)) (UniProt Q9Z2V5); test: co-IP; endogenous HDAC6 and TRIM56 in N2a cells, antibody with protein A/G magnetic beads overnight; cells without or with HSV-1 (MOI = 3, 12 h; MOI = 5, indicated times)
T2 sequence: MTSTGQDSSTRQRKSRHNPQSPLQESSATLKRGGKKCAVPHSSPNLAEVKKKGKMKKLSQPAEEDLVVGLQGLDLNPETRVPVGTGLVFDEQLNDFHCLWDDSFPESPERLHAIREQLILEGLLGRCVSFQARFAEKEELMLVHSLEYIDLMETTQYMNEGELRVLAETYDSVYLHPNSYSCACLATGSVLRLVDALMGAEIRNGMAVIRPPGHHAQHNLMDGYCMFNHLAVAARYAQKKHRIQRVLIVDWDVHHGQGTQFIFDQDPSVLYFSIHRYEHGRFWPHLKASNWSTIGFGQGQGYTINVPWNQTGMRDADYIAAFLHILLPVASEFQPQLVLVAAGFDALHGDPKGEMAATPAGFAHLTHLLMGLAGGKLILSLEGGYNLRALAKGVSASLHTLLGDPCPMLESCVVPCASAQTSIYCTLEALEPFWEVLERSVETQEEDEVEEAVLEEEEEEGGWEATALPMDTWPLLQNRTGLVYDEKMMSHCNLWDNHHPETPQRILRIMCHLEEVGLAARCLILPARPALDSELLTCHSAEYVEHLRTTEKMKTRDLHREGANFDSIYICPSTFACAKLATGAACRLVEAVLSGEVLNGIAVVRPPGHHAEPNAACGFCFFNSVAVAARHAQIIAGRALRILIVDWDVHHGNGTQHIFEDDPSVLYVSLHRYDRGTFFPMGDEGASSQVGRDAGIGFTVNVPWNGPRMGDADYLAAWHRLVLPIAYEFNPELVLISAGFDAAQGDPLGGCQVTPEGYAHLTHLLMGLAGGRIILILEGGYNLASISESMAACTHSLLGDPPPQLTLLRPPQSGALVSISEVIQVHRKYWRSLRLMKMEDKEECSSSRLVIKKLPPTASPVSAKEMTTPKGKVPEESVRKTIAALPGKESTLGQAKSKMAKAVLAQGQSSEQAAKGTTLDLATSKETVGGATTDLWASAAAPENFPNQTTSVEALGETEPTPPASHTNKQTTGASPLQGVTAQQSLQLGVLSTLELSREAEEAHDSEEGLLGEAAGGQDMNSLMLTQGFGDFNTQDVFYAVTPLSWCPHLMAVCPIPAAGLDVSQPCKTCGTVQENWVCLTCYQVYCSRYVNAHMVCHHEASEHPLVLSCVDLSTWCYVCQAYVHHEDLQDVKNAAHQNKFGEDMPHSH

[4] = biological target: cGAS (cyclic GMP-AMP synthase), endogenous (UniProt Q8C6L5); test: co-IP; endogenous TRIM56 and cGAS in cells transfected with HDAC6-WT or HDAC6-HD1/2 m (HDAC6 WT suppressed the binding)

TRIM56 K110Q (acetyl-mimetic mutant of mouse TRIM56) (from UniProt Q80VI1 1-734)
binding [1]: binds

TRIM56 K110R (non-acetylated mutant of mouse TRIM56) (from UniProt Q80VI1 1-734)
binding [1]: binds

B1: Flag-TRIM56 (full-length wild-type mouse TRIM56), expressed in 293T cells (protein, UniProt Q80VI1 1-734)
chain: MNSKVSSPTLLEALSSDFLACKICLEQLHTPKTLPCLHTYCQDCLAQLDIGGQVRCPECREIVPVPAEGVAAFKTNFFVNGLLDLVKARAPGDVHSGKPTCALCPLVGGKSSGGPATARCLDCADDLCQACADGHRCSRQTHKHRVVDLVGYRAGWYDEEARERQASQCPQHPGEALCFLCQPCSQLLCKDCRLGPHIDHPCLPLAEAVRSRKPGLEELLAGVDSNLVELEATRVAEKEALALLREQAASVGTQVEEAAERILKSLLAQKQEVLGQLRALVEAAEEATRERLTKIERQEQVAKAAAAFARRVLSLGLEAEILSLEGAITQRLRQLQDAPWTSGPTRCVLPQLELHPGLEDKNCHLLRLIFEEPKQSPKDSGKGGAGTQGGDEAQGQGDDRTKIGKQGGAQPLTPKEGKDQNPQEDDGVFIERGNRPNKKKKCKGRGKSVSREPSPILRPNLEGSGLLPRPVFSWSFPTRMPGDKRSPRITGLCPYGPQEILVADEQNRVLKRFSLNGDYKGTVQVPEGCSPCSVAALQNAVAFSANAKLYLVSPDGEIQWRRSLSLTQSSHAVAAMPCGDRVAVSVAGHVEVYKKDGSLATRFIPGGKASRGQRALVFLTTSPQGNFVGSDWQQNSVVFCDGLGQVIWEYKGPGLHGCQPGSVSVDKKGYIFLTLREVNKVVILDPKGSLLGDFLTAYHGLEKPRVTTMVDGKYLVVSLSNGTIHVFRVRFPDS
binding [2]: binds

B2: TRIM56 WT (Flag-TRIM56, full-length mouse), transfected for the co-IP with cGAS (protein, UniProt Q80VI1 1-734)
chain: MNSKVSSPTLLEALSSDFLACKICLEQLHTPKTLPCLHTYCQDCLAQLDIGGQVRCPECREIVPVPAEGVAAFKTNFFVNGLLDLVKARAPGDVHSGKPTCALCPLVGGKSSGGPATARCLDCADDLCQACADGHRCSRQTHKHRVVDLVGYRAGWYDEEARERQASQCPQHPGEALCFLCQPCSQLLCKDCRLGPHIDHPCLPLAEAVRSRKPGLEELLAGVDSNLVELEATRVAEKEALALLREQAASVGTQVEEAAERILKSLLAQKQEVLGQLRALVEAAEEATRERLTKIERQEQVAKAAAAFARRVLSLGLEAEILSLEGAITQRLRQLQDAPWTSGPTRCVLPQLELHPGLEDKNCHLLRLIFEEPKQSPKDSGKGGAGTQGGDEAQGQGDDRTKIGKQGGAQPLTPKEGKDQNPQEDDGVFIERGNRPNKKKKCKGRGKSVSREPSPILRPNLEGSGLLPRPVFSWSFPTRMPGDKRSPRITGLCPYGPQEILVADEQNRVLKRFSLNGDYKGTVQVPEGCSPCSVAALQNAVAFSANAKLYLVSPDGEIQWRRSLSLTQSSHAVAAMPCGDRVAVSVAGHVEVYKKDGSLATRFIPGGKASRGQRALVFLTTSPQGNFVGSDWQQNSVVFCDGLGQVIWEYKGPGLHGCQPGSVSVDKKGYIFLTLREVNKVVILDPKGSLLGDFLTAYHGLEKPRVTTMVDGKYLVVSLSNGTIHVFRVRFPDS
binding [1]: binds

B3: TRIM56 (tripartite motif protein 56), endogenous in N2a cells (protein, UniProt Q80VI1 1-734)
chain: MNSKVSSPTLLEALSSDFLACKICLEQLHTPKTLPCLHTYCQDCLAQLDIGGQVRCPECREIVPVPAEGVAAFKTNFFVNGLLDLVKARAPGDVHSGKPTCALCPLVGGKSSGGPATARCLDCADDLCQACADGHRCSRQTHKHRVVDLVGYRAGWYDEEARERQASQCPQHPGEALCFLCQPCSQLLCKDCRLGPHIDHPCLPLAEAVRSRKPGLEELLAGVDSNLVELEATRVAEKEALALLREQAASVGTQVEEAAERILKSLLAQKQEVLGQLRALVEAAEEATRERLTKIERQEQVAKAAAAFARRVLSLGLEAEILSLEGAITQRLRQLQDAPWTSGPTRCVLPQLELHPGLEDKNCHLLRLIFEEPKQSPKDSGKGGAGTQGGDEAQGQGDDRTKIGKQGGAQPLTPKEGKDQNPQEDDGVFIERGNRPNKKKKCKGRGKSVSREPSPILRPNLEGSGLLPRPVFSWSFPTRMPGDKRSPRITGLCPYGPQEILVADEQNRVLKRFSLNGDYKGTVQVPEGCSPCSVAALQNAVAFSANAKLYLVSPDGEIQWRRSLSLTQSSHAVAAMPCGDRVAVSVAGHVEVYKKDGSLATRFIPGGKASRGQRALVFLTTSPQGNFVGSDWQQNSVVFCDGLGQVIWEYKGPGLHGCQPGSVSVDKKGYIFLTLREVNKVVILDPKGSLLGDFLTAYHGLEKPRVTTMVDGKYLVVSLSNGTIHVFRVRFPDS
binding [3]: binds
binding [4]: binds
